For the test, the system named is hC5aR1 mice. The experiment in a line: C5a-induced neutropenia in transgenic human C5aR1 mice. The test is classed as in vivo, mouse. Conditions: antibody 20 mg/kg or avacopan 30 mg/kg IV 1 h before 0.1 mg/kg human C5a, 1 min post-C5a. As to the method:
Briefly, five groups of hC5aR1 mice were evaluated for inhibition of neutropenia. In the first group, 5 hC5aR1 mice were injected with PBS (vehicle), intravenously. […] In the third group, group 5 hC5aR1 mice were injected with exemplary biparatopic anti-C5aR1 antibody, c2137-e1711, intravenously at a dose of 20 mg/kg. In the fourth group, 5 hC5aR1 mice were injected with non-C5aR1 antibody (Motavizumab) intravenously at a dose of 20 mg/kg. In the fifth group, 5 hC5aR1 mice were injected with avacopan at a dose of 30 mg/kg, intravenously. One hour after injection of the PBS, exemplary antibodies, motavizumab or avacopan, 0.1 mg/kg of human C5a was injected into the hC5aR1 mice. The blood was collected after 1 min, 5 min and 2 hr after injection of human C5a. The percent chance in neutrophils and average change in neutrophils were calculated in all three groups and are shown in FIG. 15B-15C. Neutrophil cell counts were assessed by gating CD45+/CD11b+/Ly6G+ cells.
The experimental details of this mouse in vivo assay are described in Example 11.
Table 19 summarizes the dosage regimen of the antibodies being tested, and the bleed times to determine neutropenia.

A number of entries come with more than one value. This is not the full list of results. An entry can have further records. Results that share an entry differ for a reason that is not stated; dose, time, organism, isomer or construct need not be as stated for each record.

Turning to `Cc1ccc(NC(=O)[C@H]2CCCN(C(=O)c3c(C)cccc3F)[C@H]2c2ccc(NC3CCCC3)cc2)cc1C(F)(F)F` [Avacopan], the “average reduction in neutrophil counts from baseline” value was 59% and 10%.

Values taken from patent US11912781B2, “Humanized complement 5A receptor 1 antibodies and methods of use thereof” (VISTERRA, INC., priority 2021, dated 2024).
